These are yes or no findings as the source states them, for the method shown. In cells and extracts the contact can be indirect. Some results given as binding are weak or reduced against the parent protein; the word gives no strength.
Columns and labels:
Experiment in all cases: proximity ligation
[1] = biological target: DNAJA2 (human (endogenous in HeLa)) (UniProt O60884)
[2] = biological target: DNAJA1 (human (endogenous in HeLa, HEK 293 and human dermal fibroblasts)) (UniProt P31689)
[3] = biological target: DNAJB1 (human (endogenous in HeLa, HEK 293 and human dermal fibroblasts)) (UniProt P25685)

The chains behind the UniProt entries cited, without tags or fusion partners.
UniProt O60884: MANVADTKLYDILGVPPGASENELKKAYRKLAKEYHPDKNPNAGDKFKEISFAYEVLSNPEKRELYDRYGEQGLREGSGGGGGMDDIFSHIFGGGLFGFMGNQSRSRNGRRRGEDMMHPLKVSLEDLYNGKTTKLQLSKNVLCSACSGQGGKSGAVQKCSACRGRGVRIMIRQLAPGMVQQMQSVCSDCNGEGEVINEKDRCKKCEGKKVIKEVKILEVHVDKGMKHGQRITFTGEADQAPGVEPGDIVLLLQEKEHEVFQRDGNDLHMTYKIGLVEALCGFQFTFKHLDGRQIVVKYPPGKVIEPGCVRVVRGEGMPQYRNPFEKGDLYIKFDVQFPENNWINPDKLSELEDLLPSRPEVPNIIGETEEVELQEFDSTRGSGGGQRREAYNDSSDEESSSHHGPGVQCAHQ
UniProt P25685: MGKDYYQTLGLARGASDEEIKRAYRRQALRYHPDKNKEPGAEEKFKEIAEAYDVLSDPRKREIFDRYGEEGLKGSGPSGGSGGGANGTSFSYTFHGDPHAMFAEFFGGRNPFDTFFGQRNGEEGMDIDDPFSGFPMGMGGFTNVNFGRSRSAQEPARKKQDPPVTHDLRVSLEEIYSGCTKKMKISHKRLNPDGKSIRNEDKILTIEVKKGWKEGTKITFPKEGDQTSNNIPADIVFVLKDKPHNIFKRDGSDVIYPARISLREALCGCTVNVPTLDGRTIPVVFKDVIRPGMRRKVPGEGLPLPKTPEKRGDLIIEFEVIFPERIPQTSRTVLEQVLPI
UniProt Q9UDY4: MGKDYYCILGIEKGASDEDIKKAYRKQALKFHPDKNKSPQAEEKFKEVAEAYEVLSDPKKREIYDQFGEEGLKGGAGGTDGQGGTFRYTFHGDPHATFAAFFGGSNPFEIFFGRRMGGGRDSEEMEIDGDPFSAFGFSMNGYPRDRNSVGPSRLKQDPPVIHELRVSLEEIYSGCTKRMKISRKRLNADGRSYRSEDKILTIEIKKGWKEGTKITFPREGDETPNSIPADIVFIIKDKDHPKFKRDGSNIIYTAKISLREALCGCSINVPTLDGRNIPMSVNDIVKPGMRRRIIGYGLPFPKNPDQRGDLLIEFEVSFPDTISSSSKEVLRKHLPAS

Substance | binding [1] | binding [2] | binding [3]
DNAJB1 (from UniProt P25685 1-340) | binds | – | –
DNAJB4 (from UniProt Q9UDY4 1-337) | binds | binds | binds

From doi:10.1101/2022.06.25.497591
